Experimental data as given in PubChem BioAssay AID226 (DTP/NCI, 2004).
The list is a part of this screen's results and no random one: it gathers tests that were run many times, whatever their T/C, doses with no T/C, and many T/C values between a quarter and a half above the control. Other doses and runs of a compound stand elsewhere. T/C gives the treated animals as a percentage of the vehicle group. Some entries give survivors of the animals treated and no T/C: the source holds a T/C of zero for them, seemingly a mark for toxic or unscored doses. Some doses without a T/C left all or most animals alive at the check, yet need not have been tolerated: the source hardly ever lists a survival T/C far under the control, and the zero likely stands for such cases as well. Survivors were counted at the toxicity check, usually on the fifth day, unless a day is given; later deaths do not show. Schedule codes are those of the source, taken here to give the interval after Q, in days (D) or hours (H), and the number of doses after X. Some entries were tested several times; the values are given in rising order. Where survival is the endpoint, the PubChem record calls one and a half times the control and up active, and a quarter to a half above the control has no call in these data; cut-offs in other NCI protocols can differ. Some T/C values are followed by the survivors on the day toxicity was checked, most often the fifth; where none is given, no animal had died by that day. Additions like (4×) count equal records among those shown.

Tested on: B6C3F1 mice, intracerebral ependymoblastoma, median survival T/C
Test: NCI In Vivo Anticancer Drug Screen. Data for tumor model Ependymoblastoma (intracerebral) in B6C3F1 mice
Details: T/C endpoint: median survival time, higher T/C = longer survival
Experimental: The antitumor activity of compounds was measured in mice bearing transplantable tumors. Survival or tumor size were measured and the results are expressed as the measurement made in the treated group (T) divided by the measurement made in the vehicle treated control group (C). The tumor model used in this assay is Ependymoblastoma (intracerebral) in B6C3F1 mice

[1] = dose: 150.0 mg/kg/injection, schedule: Q01DX005 (ip), vehicle: Klucel (hydroxypropylcellulose) (HPC)
[2] = dose: 400.0 mg/kg/injection, schedule: Q01DX005 (ip), vehicle: suspension in saline

SMILES: Nc1nc(=S)c2ncn(C3OC(COC(=O)c4ccc(Cl)cc4)C(OC(=O)c4ccc(Cl)cc4)C3OC(=O)c3ccc(Cl)cc3)c2[nH]1 (stereo unspecified)
- T/C (dose: 18.75 mg/kg/injection, schedule: Q01DX005 (ip), vehicle: Klucel (hydroxypropylcellulose) (HPC)): 134 % of control [9 of 10 alive]
- T/C (dose: 37.5 mg/kg/injection, schedule: Q01DX005 (ip), vehicle: Klucel (hydroxypropylcellulose) (HPC)): 130 % of control
- T/C [1]: 125 % of control
- survivor count [1]: 10 of 10

SMILES: CSCS(=O)C[C@H](CO)NC(=O)/C=C/c1c(C)[nH]c(=O)[nH]c1=O (stereo partly specified)
- survivor count (dose: 0.06 mg/kg/injection, schedule: Q01DX005 (ip), vehicle: Klucel (hydroxypropylcellulose) (HPC)): 0 of 10
- survivor count (dose: 0.12 mg/kg/injection, schedule: Q01DX005 (ip), vehicle: Klucel (hydroxypropylcellulose) (HPC)): 0 of 10
- survivor count (dose: 0.25 mg/kg/injection, schedule: Q01DX005 (ip), vehicle: Klucel (hydroxypropylcellulose) (HPC)): 0 of 10
- survivor count (dose: 0.5 mg/kg/injection, schedule: Q01DX005 (ip), vehicle: Klucel (hydroxypropylcellulose) (HPC)): 0 of 10

SMILES: N[C@H](C(=O)O)[C@@H]1CC(Cl)=NO1
- survivor count (dose: 32.0 mg/kg/injection, schedule: Q01DX005 (ip), vehicle: saline + Tween-80 + alcohol): 10 of 10
- survivor count (dose: 32.0 mg/kg/injection, schedule: Q01DX005 (ip), vehicle: saline): 10 of 10
- survivor count (dose: 64.0 mg/kg/injection, schedule: Q01DX005 (ip), vehicle: saline + Tween-80 + alcohol): 10 of 10

SMILES: CCOC(=O)CC(SP(=S)(OC)OC)C(=O)OCC (stereo unspecified)
- survivor count [2]: 1 of 10

SMILES: CCN(CC)c1ccc2cc3ccc(=[N+](CC)CC)cc-3oc2c1
- T/C (dose: 8.0 mg/kg/injection, schedule: Q01DX001 (ip), vehicle: saline): 95 [survivors not given], 101 [survivors not given], 102 [survivors not given], 111 % of control
- T/C (dose: 16.0 mg/kg/injection, schedule: Q01DX001 (ip), vehicle: saline): 97, 97 [survivors not given], 104 [survivors not given], 114 % of control [survivors not given]
- survivor count (dose: 16.0 mg/kg/injection, schedule: Q01DX005 (ip), vehicle: saline): 0 of 10
- T/C (dose: 32.0 mg/kg/injection, schedule: Q01DX001 (ip), vehicle: saline): 95 [8 of 10 alive], 95 [survivors not given], 97 [survivors not given], 106 % of control [survivors not given]
- T/C (dose: 64.0 mg/kg/injection, schedule: Q01DX001 (ip), vehicle: saline): 93 % of control [5 of 10 alive]

SMILES: CC(=O)OCC1OC(n2cnc3c(=S)nc[nH]c32)C(OC(C)=O)C1OC(C)=O (stereo unspecified)
- survivor count [2]: 10 of 10

SMILES: CCCCCCC(=O)O[C@H]1CC[C@H]2[C@@H]3CCC4=CC(=O)CC[C@]4(C)[C@H]3CC[C@]12C
- survivor count (dose: 256.0 mg/kg/injection, schedule: Q01DX005 (ip), vehicle: Klucel (hydroxypropylcellulose) (HPC)): 0 of 6

SMILES: CC(=O)NNC(=O)c1ccccn1
- T/C (dose: 100.0 mg/kg/injection, schedule: Q01DX001 (ip), vehicle: Klucel (hydroxypropylcellulose) (HPC)): 100, 101 [survivors not given] (2×), 106 % of control [survivors not given]
- T/C (dose: 200.0 mg/kg/injection, schedule: Q01DX001 (ip), vehicle: Klucel (hydroxypropylcellulose) (HPC)): 91 [survivors not given], 99, 104 [survivors not given], 115 % of control [survivors not given]
- T/C (dose: 400.0 mg/kg/injection, schedule: Q01DX001 (ip), vehicle: Klucel (hydroxypropylcellulose) (HPC)): 92 [8 of 10 alive], 100 [survivors not given], 101 % of control [survivors not given]
- survivor count (dose: 800.0 mg/kg/injection, schedule: Q01DX001 (ip), vehicle: Klucel (hydroxypropylcellulose) (HPC)): 0 of 10
- survivor count (dose: 800.0 mg/kg/injection, schedule: Q01DX005 (ip), vehicle: Klucel (hydroxypropylcellulose) (HPC)): 0 of 10 and 1 of 10

SMILES: O=c1ccc2ccccc2o1
- survivor count (dose: 180.0 mg/kg/injection, schedule: Q01DX005 (ip), vehicle: saline with Tween-80): 6 of 10
- survivor count (dose: 200.0 mg/kg/injection, schedule: Q01DX005 (ip), vehicle: Klucel (hydroxypropylcellulose) (HPC)): 2 of 10
- survivor count (dose: 360.0 mg/kg/injection, schedule: Q01DX005 (ip), vehicle: saline with Tween-80): 5 of 10
- survivor count (dose: 400.0 mg/kg/injection, schedule: Q01DX005 (ip), vehicle: Klucel (hydroxypropylcellulose) (HPC)): 0 of 10
- survivor count (dose: 720.0 mg/kg/injection, schedule: Q01DX005 (ip), vehicle: saline with Tween-80): 6 of 10

SMILES: CN(CO)c1nc(N(C)CO)nc(N(C)CO)n1
- T/C (dose: 1.56 mg/kg/injection, schedule: Q01DX005 (ip), vehicle: saline with Tween-80): 131 % of control
- T/C (dose: 6.25 mg/kg/injection, schedule: Q01DX005 (ip), vehicle: saline with Tween-80): 98, 102, 106, 107 % of control
- T/C (dose: 12.5 mg/kg/injection, schedule: Q01DX005 (ip), vehicle: saline with Tween-80): 101, 109, 114, 122 % of control
- T/C (dose: 12.5 mg/kg/injection, schedule: Q01DX009 (ip), vehicle: Klucel (hydroxypropylcellulose) (HPC)): 125 % of control
- T/C (dose: 25.0 mg/kg/injection, schedule: Q01DX005 (ip), vehicle: saline with Tween-80): 108, 109, 113, 118 % of control
- T/C (dose: 50.0 mg/kg/injection, schedule: Q01DX005 (ip), vehicle: saline with Tween-80): 101, 113, 114, 116 % of control
- survivor count (dose: 100.0 mg/kg/injection, schedule: Q01DX005 (ip), vehicle: saline with Tween-80): 7 of 10
- survivor count (dose: 200.0 mg/kg/injection, schedule: Q01DX005 (ip), vehicle: saline with Tween-80): 0 of 10
- survivor count (dose: 400.0 mg/kg/injection, schedule: Q01DX005 (ip), vehicle: saline with Tween-80): 0 of 10
- survivor count (dose: 800.0 mg/kg/injection, schedule: Q01DX005 (ip), vehicle: saline with Tween-80): 0 of 10

SMILES: C[C@]1(O)CC[C@H]2[C@@H]3CCC4=CC(=O)CC[C@]4(C)[C@@]3(F)[C@@H](O)C[C@@]21C
- survivor count (dose: 32.0 mg/kg/injection, schedule: Q01DX005 (ip), vehicle: Klucel (hydroxypropylcellulose) (HPC)): 6 of 6
- survivor count (dose: 512.0 mg/kg/injection, schedule: Q01DX005 (ip), vehicle: Klucel (hydroxypropylcellulose) (HPC)): 3 of 6

SMILES: Nc1nc2c(c(=O)[nH]1)N(C=O)C(CNc1ccc(C(=O)N[C@@H](CCC(=O)O)C(=O)O)cc1)CN2 (stereo partly specified)
- T/C (dose: 128.0 mg/kg/injection, schedule: Q01DX001 (ip), vehicle: saline): 98 [survivors not given], 99, 99 [survivors not given], 105 % of control [survivors not given]
- T/C (dose: 256.0 mg/kg/injection, schedule: Q01DX001 (ip), vehicle: saline): 92, 93 [survivors not given], 99 [survivors not given], 103 % of control [survivors not given]
- T/C (dose: 512.0 mg/kg/injection, schedule: Q01DX001 (ip), vehicle: saline): 91 [survivors not given], 99 [survivors not given], 100, 101 % of control [survivors not given]
- T/C (dose: 1024.0 mg/kg/injection, schedule: Q01DX001 (ip), vehicle: saline): 87 [5 of 10 alive], 90 [survivors not given], 96 [survivors not given], 101 % of control [survivors not given]
- survivor count (dose: 1024.0 mg/kg/injection, schedule: Q01DX005 (ip), vehicle: saline with Tween-80): 6 of 10
- survivor count (dose: 1024.0 mg/kg/injection, schedule: Q01DX005 (ip), vehicle: saline): 5 of 10
- survivor count (dose: 1800.0 mg/kg/injection, schedule: Q04DX003 (ip), vehicle: saline): 3 of 10

SMILES: CN(C)N=Nc1ccc(C(N)=O)cc1
- T/C (dose: 64.0 mg/kg/injection, schedule: Q01DX005 (ip), vehicle: saline with Tween-80): 145 % of control
- survivor count (dose: 128.0 mg/kg/injection, schedule: Q01DX005 (ip), vehicle: saline with Tween-80): 9 of 10
- survivor count (dose: 256.0 mg/kg/injection, schedule: Q01DX005 (ip), vehicle: saline with Tween-80): 0 of 10

SMILES: c1ccc([C@H]2CN3CCSC3=N2)cc1
- T/C (dose: 20.0 mg/kg/injection, schedule: Q01DX001 (ip), vehicle: saline): 92 [survivors not given], 96 [survivors not given], 99, 102 % of control [survivors not given]
- T/C (dose: 40.0 mg/kg/injection, schedule: Q01DX001 (ip), vehicle: saline): 96 [survivors not given], 98 [survivors not given], 107, 110 % of control [survivors not given]
- T/C (dose: 80.0 mg/kg/injection, schedule: Q01DX001 (ip), vehicle: saline): 98 [5 of 10 alive on day 9] and 108 % of control [survivors not given]
- survivor count (dose: 80.0 mg/kg/injection, schedule: Q01DX005 (ip), vehicle: saline): 0 of 10
- survivor count (dose: 160.0 mg/kg/injection, schedule: Q01DX001 (ip), vehicle: saline): 0 of 10 on day 9
